Source: PMC7729563, “Phospho-Mutant Activity Assays Provide Evidence for the Negative Regulation of Transcriptional Regulator PRE1 by Phosphorylation” (International Journal of Molecular Sciences, 2020)
Results are given in words; binding and its absence hold for the method and conditions named. For some assays here: Binding seen in cells or lysates may run through a third protein. Some binding calls cover weakened binding; strength is not graded here. Where a sequence is shown, tags or fusion partners need not be part of it.

T1: PRE1-YFP (Arabidopsis thaliana) (UniProt Q9FLE9)
T1 sequence: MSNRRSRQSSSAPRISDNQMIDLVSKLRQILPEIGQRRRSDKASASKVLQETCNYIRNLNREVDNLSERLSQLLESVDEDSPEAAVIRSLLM

T2: BD-IBH1 (ILI1 BINDING bHLH PROTEIN1 fused to GAL4BD) (Arabidopsis thaliana) (UniProt Q9SKX1)
T2 sequence: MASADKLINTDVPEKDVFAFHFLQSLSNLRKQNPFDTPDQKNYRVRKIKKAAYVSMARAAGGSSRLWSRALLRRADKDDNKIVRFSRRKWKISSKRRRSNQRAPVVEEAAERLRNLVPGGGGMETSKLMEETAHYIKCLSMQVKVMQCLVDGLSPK

T3: IBH1-cYFP (Arabidopsis thaliana) (UniProt Q9SKX1)
T3 sequence: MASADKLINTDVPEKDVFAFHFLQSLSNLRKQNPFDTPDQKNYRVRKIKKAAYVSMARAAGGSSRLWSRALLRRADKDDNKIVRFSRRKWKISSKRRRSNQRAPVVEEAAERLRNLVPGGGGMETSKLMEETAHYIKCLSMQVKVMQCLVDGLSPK

T4: GST-IBH1 (Arabidopsis thaliana, UniProt Q9SKX1 1-156)
T4 construct: also called glutathione S-transferase (GST)-IBH1; source: bacteria, purified on glutathione beads; not shown: GST, N-terminal, kept
T4 sequence (looked up): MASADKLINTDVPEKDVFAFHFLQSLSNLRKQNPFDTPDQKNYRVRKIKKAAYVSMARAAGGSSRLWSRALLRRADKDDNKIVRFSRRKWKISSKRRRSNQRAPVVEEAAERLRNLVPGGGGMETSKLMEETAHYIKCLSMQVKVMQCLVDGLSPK

T5: BD-PAR2 (Arabidopsis thaliana) (UniProt Q9LXR7)
T5 sequence: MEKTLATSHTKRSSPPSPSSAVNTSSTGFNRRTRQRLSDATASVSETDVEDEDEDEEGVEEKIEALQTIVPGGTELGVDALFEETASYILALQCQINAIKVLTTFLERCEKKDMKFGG

T6: IBH1 in pBiFCt-2in1 (rBiFC fusion) (Arabidopsis thaliana) (UniProt Q9SKX1)
T6 sequence: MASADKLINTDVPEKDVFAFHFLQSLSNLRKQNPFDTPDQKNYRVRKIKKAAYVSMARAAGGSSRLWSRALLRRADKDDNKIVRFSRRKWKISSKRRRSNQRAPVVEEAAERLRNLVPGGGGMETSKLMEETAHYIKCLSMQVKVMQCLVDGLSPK

T7: BD-AIF1 (ATBS1-interacting factor 1) (Arabidopsis thaliana), Q9M9L6
T7 chain: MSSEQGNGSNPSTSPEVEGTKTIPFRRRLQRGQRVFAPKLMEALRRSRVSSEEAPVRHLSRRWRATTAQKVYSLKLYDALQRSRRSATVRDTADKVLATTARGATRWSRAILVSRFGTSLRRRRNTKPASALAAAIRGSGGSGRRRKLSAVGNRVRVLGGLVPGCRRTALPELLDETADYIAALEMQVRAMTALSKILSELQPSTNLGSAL


Legend:
[1] = biological target: T1, PRE1-YFP (Arabidopsis thaliana); experiment: co-IP; extracts of ten-day-old transgenic Arabidopsis; GFP-Trap beads on PRE1-YFP; immunoblot with anti-Myc and anti-YFP; 20 mM HEPES-KOH pH 7.5, 40 mM KCl, 1 mM EDTA, 0.5% Triton X-100
[2] = biological target: T2, BD-IBH1 (ILI1 BINDING bHLH PROTEIN1 fused to GAL4BD) (Arabidopsis thaliana); experiment: two-hybrid; yeast AH109; liquid β-galactosidase activity assay with ONPG, measured by spectrophotometer; three biological replicates
[3] = biological target: T2, BD-IBH1 (ILI1 BINDING bHLH PROTEIN1 fused to GAL4BD) (Arabidopsis thaliana); experiment: two-hybrid; yeast AH109; GAL4BD fusions of IBH1/AIF1/PAR2/OsIBH1 with GAL4AD fusions of PRE1, PRE2, ILI1 and mutants; growth on SD (-Trp-Leu-His) with different concentrations of 3-aminotriazol, 3 days, 30 °C
[4] = biological target: T3, IBH1-cYFP (Arabidopsis thaliana); experiment: split reporter; BiFC: IBH1-cYFP with PRE-nYFP fusions in tobacco leaves, at least 36 h at 22 °C in darkness, confocal microscopy
[5] = biological target: T2, BD-IBH1 (ILI1 BINDING bHLH PROTEIN1 fused to GAL4BD) (Arabidopsis thaliana); experiment: two-hybrid; yeast three-hybrid: GAL4BD-IBH1 and PRE1 or mutant (pMet25) from pBridge, GAL4AD-HBI1 from pGCADT7, AH109; growth on -Trp/-Leu/-Met/-His SD medium
[6] = biological target: T4, GST-IBH1; experiment: pull-down; competition: GST-IBH1 on glutathione beads with MBP-HBI1 and MBP, MBP-PRE1, MBP-PRE1^S67A or MBP-PRE1^S67E; same buffers; anti-MBP immunoblot; both purified
[7] = biological target: T5, BD-PAR2 (Arabidopsis thaliana); experiment: two-hybrid; yeast AH109; GAL4BD fusions of IBH1/AIF1/PAR2/OsIBH1 with GAL4AD fusions of PRE1, PRE2, ILI1 and mutants; growth on SD (-Trp-Leu-His) with different concentrations of 3-aminotriazol, 3 days, 30 °C
[8] = biological target: T6, IBH1 in pBiFCt-2in1 (rBiFC fusion) (Arabidopsis thaliana); experiment: split reporter; ratiometric BiFC (pBiFCt-2in1-CC, RFP as internal marker) in tobacco leaf epidermal cells, 40 h at 22 °C, YFP/RFP ratio, n = 50 images
[9] = biological target: T7, BD-AIF1 (ATBS1-interacting factor 1) …; experiment: two-hybrid; yeast AH109; GAL4BD fusions of IBH1/AIF1/PAR2/OsIBH1 with GAL4AD fusions of PRE1, PRE2, ILI1 and mutants; growth on SD (-Trp-Leu-His) with different concentrations of 3-aminotriazol, 3 days, 30 °C; conditions: remark: other sources report otherwise

binding [2] | binding [3] | Binder | other results
binds | binds | AD-PRE2 (protein, UniProt Q9LXG5 1-94) MSSSRRSRQASSSSRISDDQITDLISKLRQSIPEIRQNRRSNTVSASKVLQETCNYIRNLNKEADDLSDRLTQLLESIDPNSPQAAVIRSLING | –
binds | binds | AD-PRE2^S68A (protein, UniProt Q9LXG5 1-94) MSSSRRSRQASSSSRISDDQITDLISKLRQSIPEIRQNRRSNTVSASKVLQETCNYIRNLNKEADDLADRLTQLLESIDPNSPQAAVIRSLING | –
binds | binds | AD-PRE1^S46E (protein, UniProt Q9FLE9 1-92) MSNRRSRQSSSAPRISDNQMIDLVSKLRQILPEIGQRRRSDKASAEKVLQETCNYIRNLNREVDNLSERLSQLLESVDEDSPEAAVIRSLLM | –
binds | binds | AD-PRE1^S46A (protein, UniProt Q9FLE9 1-92) MSNRRSRQSSSAPRISDNQMIDLVSKLRQILPEIGQRRRSDKASAAKVLQETCNYIRNLNREVDNLSERLSQLLESVDEDSPEAAVIRSLLM | –

Second part, the binder before the results:

Binder | binding [2] | binding [3] | other results
IBH1-Myc (protein, UniProt Q9SKX1 1-156) MASADKLINTDVPEKDVFAFHFLQSLSNLRKQNPFDTPDQKNYRVRKIKKAAYVSMARAAGGSSRLWSRALLRRADKDDNKIVRFSRRKWKISSKRRRSNQRAPVVEEAAERLRNLVPGGGGMETSKLMEETAHYIKCLSMQVKVMQCLVDGLSPK | – | – | binding [1]: binds
PRE2-nYFP (protein, UniProt Q9LXG5 1-94) MSSSRRSRQASSSSRISDDQITDLISKLRQSIPEIRQNRRSNTVSASKVLQETCNYIRNLNKEADDLSDRLTQLLESIDPNSPQAAVIRSLING | – | – | binding [4]: binds
PRE2^S68A-nYFP (protein, UniProt Q9LXG5 1-94) MSSSRRSRQASSSSRISDDQITDLISKLRQSIPEIRQNRRSNTVSASKVLQETCNYIRNLNKEADDLADRLTQLLESIDPNSPQAAVIRSLING | – | – | binding [4]: binds
AD-HBI1 (protein, UniProt Q9ZPW3 1-337) MLEGLVSQESLSLNSMDMSVLERLKWVQQQQQQLQQVVSHSSNNSPELLQILQFHGSNNDELLESSFSQFQMLGSGFGPNYNMGFGPPHESISRTSSCHMEPVDTMEVLLKTGEETRAVALKNKRKPEVKTREEQKTEKKIKVEAETESSMKGKSNMGNTEASSDTSKETSKGASENQKLDYIHVRARRGQATDRHSLAERARREKISKKMKYLQDIVPGCNKVTGKAGMLDEIINYVQCLQRQVEFLSMKLAVLNPELELAVEDVSVKQFQAYFTNVVASKQSIMVDVPLFPLDQQGSLDLSAINPNQTTSIEAPSGSWETQSQSLYNTSSLGFHY | – | – | binding [5]: binds
MBP-HBI1 (protein, UniProt Q9ZPW3 1-337) MLEGLVSQESLSLNSMDMSVLERLKWVQQQQQQLQQVVSHSSNNSPELLQILQFHGSNNDELLESSFSQFQMLGSGFGPNYNMGFGPPHESISRTSSCHMEPVDTMEVLLKTGEETRAVALKNKRKPEVKTREEQKTEKKIKVEAETESSMKGKSNMGNTEASSDTSKETSKGASENQKLDYIHVRARRGQATDRHSLAERARREKISKKMKYLQDIVPGCNKVTGKAGMLDEIINYVQCLQRQVEFLSMKLAVLNPELELAVEDVSVKQFQAYFTNVVASKQSIMVDVPLFPLDQQGSLDLSAINPNQTTSIEAPSGSWETQSQSLYNTSSLGFHY | – | – | binding [6]: binds
AD-PRE1 (PACLOBUTRAZOL-…-1 fused to GAL4AD) (protein, UniProt Q9FLE9 1-92) MSNRRSRQSSSAPRISDNQMIDLVSKLRQILPEIGQRRRSDKASASKVLQETCNYIRNLNREVDNLSERLSQLLESVDEDSPEAAVIRSLLM | binds | binds | binding [7]: binds
PRE1^S67A as the third protein of the yeast three-hybrid assay (protein, UniProt Q9FLE9 1-92) MSNRRSRQSSSAPRISDNQMIDLVSKLRQILPEIGQRRRSDKASASKVLQETCNYIRNLNREVDNLAERLSQLLESVDEDSPEAAVIRSLLM | – | – | binding [5]: binds
PRE1 as the third protein of the yeast three-hybrid assay (protein, UniProt Q9FLE9 1-92) MSNRRSRQSSSAPRISDNQMIDLVSKLRQILPEIGQRRRSDKASASKVLQETCNYIRNLNREVDNLSERLSQLLESVDEDSPEAAVIRSLLM | – | – | binding [5]: binds
AD-PRE1^S67E (protein, UniProt Q9FLE9 1-92) MSNRRSRQSSSAPRISDNQMIDLVSKLRQILPEIGQRRRSDKASASKVLQETCNYIRNLNREVDNLEERLSQLLESVDEDSPEAAVIRSLLM | – | – | binding [7]: binds
AD-PRE1^S67A (protein, UniProt Q9FLE9 1-92) MSNRRSRQSSSAPRISDNQMIDLVSKLRQILPEIGQRRRSDKASASKVLQETCNYIRNLNREVDNLAERLSQLLESVDEDSPEAAVIRSLLM | binds | binds | –
PRE1 in pBiFCt-2in1 (rBiFC fusion) (protein, UniProt Q9FLE9 1-92) MSNRRSRQSSSAPRISDNQMIDLVSKLRQILPEIGQRRRSDKASASKVLQETCNYIRNLNREVDNLSERLSQLLESVDEDSPEAAVIRSLLM | – | – | binding [8]: binds
AD-PRE1 (PACLOBUTRAZOL-…-1 fused to GAL4AD), Q9FLE9 1-92 (protein) MSNRRSRQSSSAPRISDNQMIDLVSKLRQILPEIGQRRRSDKASASKVLQETCNYIRNLNREVDNLSERLSQLLESVDEDSPEAAVIRSLLM | – | – | binding [9]: binds
